The values below come from PMC13483542.

Protein sequences, listed by entry. Tags and fused reporters are not part of them. Residues count along the entry.
UniProt P01024, residues 672-748: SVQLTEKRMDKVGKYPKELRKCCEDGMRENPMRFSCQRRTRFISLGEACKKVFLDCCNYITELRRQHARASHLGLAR

No constants are given. Whether binding was seen depends on the method and setting. In cells and extracts the contact can be indirect. Some results given as binding are weak or reduced against the parent protein; the word gives no strength.

The test addresses T1, C3aR (human (endogenous in iMG)) (UniProt Q16581).
T1 sequence: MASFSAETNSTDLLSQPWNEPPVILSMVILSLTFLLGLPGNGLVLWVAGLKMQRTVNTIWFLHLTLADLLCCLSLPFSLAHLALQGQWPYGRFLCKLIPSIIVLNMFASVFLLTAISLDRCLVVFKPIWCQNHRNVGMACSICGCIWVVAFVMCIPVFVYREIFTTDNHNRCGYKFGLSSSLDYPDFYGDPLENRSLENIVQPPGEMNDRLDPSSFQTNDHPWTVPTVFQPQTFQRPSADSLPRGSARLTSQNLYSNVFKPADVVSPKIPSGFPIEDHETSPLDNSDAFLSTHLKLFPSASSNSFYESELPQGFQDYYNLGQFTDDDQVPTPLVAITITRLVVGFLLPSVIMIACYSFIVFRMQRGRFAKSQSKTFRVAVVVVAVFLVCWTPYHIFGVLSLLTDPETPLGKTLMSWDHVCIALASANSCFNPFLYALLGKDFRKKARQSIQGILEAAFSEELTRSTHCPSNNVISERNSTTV
The experiment in a line: proximity ligation; matched ligand-receptor positive control on iMG; source of C3a and the antibodies not told; fluorescent puncta per cell.

For the substance “C3a (from UniProt P01024 672-748) (ligand)”, the binding result is “binds”.
